Patent publication US20220064274A1 (SHANGHAI YILE BIOTECHNOLOGY, published 2022)
No constants are given. Whether binding was seen depends on the method and setting. Some entries that bind do so weakly or less than the wild type.

T1: human proBDNF precursor protein (human, UniProt P23560 19-247)
T1 construct: also called human proBDNF precursor recombinant protein
T1 sequence (looked up): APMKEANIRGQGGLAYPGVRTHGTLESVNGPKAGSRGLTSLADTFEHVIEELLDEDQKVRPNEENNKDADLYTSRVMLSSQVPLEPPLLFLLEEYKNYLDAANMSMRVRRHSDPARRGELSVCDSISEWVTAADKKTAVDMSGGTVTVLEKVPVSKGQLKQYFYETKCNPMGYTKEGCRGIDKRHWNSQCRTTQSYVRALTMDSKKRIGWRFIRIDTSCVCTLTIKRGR

B1: 2H8 Monoclonal antibody (antibody, V domains shown)
VH: EVQLVETGGGLVQPGGSLRLSCAASGFTFSSYGMHWVRQAPGKGLEWVSVISGSGDSTYYAESVKGRFTISRDNARNTVYLQMNSLRAEDTAVYYCASGILTGYVFDYWGKGTMVTVSS
VL: DVVMTQSPLSLPVTLGQPASISCRSSQSLVSNDGNTYLNWFQQRPGQPPRRLIYMVSKWDSGVPDRFSGSGSGTDFTLRISRVEAEDVGVYYCMQSTHWPPTFGGGTKLEIKR
notes: also called recombinant monoclonal antibody 2H8
B2: single chain antibody 2H8 (scFv)
scFv: EVQLVETGGGLVQPGGSLRLSCAASGFTFSSYGMHWVRQAPGKGLEWVSVISGSGDSTYYAESVKGRFTISRDNARNTVYLQMNSLRAEDTAVYYCASGILTGYVFDYWGKGTMVTVSSGGGGSGGGGSGGGGSDVVMTQSPLSLPVTLGQPASISCRSSQSLVSNDGNTYLNWFQQRPGQPPRRLIYMVSKWDSGVPDRFSGSGSGTDFTLRISRVEAEDVGVYYCMQSTHWPPTFGGGTKLEIKR

Legend:
[1] = target: T1, human proBDNF precursor protein; assay: ELISA on denatured human proBDNF
[2] = target: T1, human proBDNF precursor protein; assay: single phage ELISA

Binder	binding [1]	binding [2]
B1	binds	
B2		binds
